Values from PubChem BioAssay AID1259254 (NCATS, 2017).
Purpose: 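Genome-wide screen for genes that prevent DNA re-replication in cancer cells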 (primary screen). Cell system: human HCT116 colorectal cancer cells. Knock-down reagent: single siRNA against human genes. Time to read-out: 3 days. Measurement: 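Nuclei stained with Hoechst and imaged; cell-cycle phase assigned by DNA content; G2 share scaled per plate, non-targeting siRNA 0%, GMNN siRNA 100%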. Scale: G2 robust z-score and G2 cells, % of GMNN control: higher = more G2 cells, more excess DNA replication; raw share of cells in G2: higher = larger share of cells with G2 DNA content. Call rule: 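Active siRNAs have a G2 robust z of 5 or more median absolute deviations over the median, which in these data means about 38% or higher of GMNN control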.
Here is one part, drawn at random, of about 59,000 reagents tested. Of all reagents, about 1,550 (2.6%) are marked active. 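G2 share is only a proxy for re-replication; each gene was hit by three separate siRNAs, and active genes were retested.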 The raw values are shown without normalisation. Entries without a mark were called inactive. Reagents against one gene are numbered here. Not stated in the record: the amount of reagent.

gene knocked down	siRNA no.	G2 robust z-score	G2 cells, % of GMNN control	raw share of cells in G2 (%)
RTTN	1	-0.807	-2.71	3.39
RTTN	2	-0.663	-1.7	3.2
RTTN	3	-0.282	0.982	3.64
SMC3	1	-1.08	-4.64	3.04
SMC3	2	-1.34	-6.48	2.99
SMC3	3	-0.884	-3.25	3.06
SLAMF7	1	-0.27	1.07	4.61
SLAMF7	2	-1.04	-4.36	2.8
SLAMF7	3	1.32	12.2	10.7
SNTN	1	-0.693	-1.91	1.89
SNTN	2	2.26	18.9	11.3
SNTN	3	1.58	14.1	7.57
ARHGAP18	1	0.42	5.92	6.72
ARHGAP18	2	-0.28	0.996	6.13
ARHGAP18	3	-0.448	-0.187	4.89
MRPL13	1	2.68	21.8	12.2
MRPL13	2	2.78	22.6	13.1
MRPL13	3	4.02	31.3	13.1
CCNYL1	1	4.28	33.1	14.9
CCNYL1	2	1.87	16.1	7.9
CCNYL1	3	2.53	20.7	10.3
GJA10	1	-0.232	1.34	4.55
GJA10	2	2.98	23.9	10.5
GJA10	3	-0.215	1.45	2.85
FA2H	1	0.0828	3.55	5.51
FA2H	2	0.773	8.41	7.32
FA2H	3	-0.672	-1.76	4.92
PTPN2P1	1	-0.547	-0.882	3.44
PTPN2P1	2	0.629	7.39	5.97
PTPN2P1	3	-0.7	-1.96	2.42
GAS2L2	1	0.478	6.33	5.87
GAS2L2	2	-0.568	-1.03	2.78
GAS2L2	3	1.16	11.2	6.75
KIAA1191	1	0.264	4.82	4.56
KIAA1191	2	0.738	8.16	7.56
KIAA1191	3	-0.197	1.58	5.22
TSHZ1	1	-0.394	0.192	3.59
TSHZ1	2	0.466	6.25	8.77
TSHZ1	3	-0.655	-1.64	2.65
GBP3	1	7.07 (active)	52.7	24.4
GBP3	2	0.702	7.91	8.27
GBP3	3	0.567	6.95	6.13
DOK3	1	0.053	3.34	3.29
DOK3	2	-0.517	-0.669	4.17
DOK3	3	0.34	5.36	6.65
ADAM20	1	3.61	28.4	15.5
ADAM20	2	-0.34	0.576	5.11
ADAM20	3	-0.496	-0.525	3.71
